Earlier results in patent US8956669B2, “Anticancer and antimicrobial compounds from antarctic extremophilic microorgansims” (priority 2009, dated 2015).
For at least one compound, name, drawing or mass did not settle the structure. Marks after values point to notes of the source that are not given here.

System: Mycobacterium smegmatis
Settings: literature values, Table 2

In the case of `COc1ccc(-c2coc3cc(O)ccc3c2=O)cc1` [Formononetin], the “MIC against Mycobacterium smegmatis” value is listed as 256^a μg/ml.
